In paper PMC12150175 one finds binding data, which are given here for 2 substances.

Protein sequences, listed by entry. Tags and fused reporters are not part of them.
UniProt P35579: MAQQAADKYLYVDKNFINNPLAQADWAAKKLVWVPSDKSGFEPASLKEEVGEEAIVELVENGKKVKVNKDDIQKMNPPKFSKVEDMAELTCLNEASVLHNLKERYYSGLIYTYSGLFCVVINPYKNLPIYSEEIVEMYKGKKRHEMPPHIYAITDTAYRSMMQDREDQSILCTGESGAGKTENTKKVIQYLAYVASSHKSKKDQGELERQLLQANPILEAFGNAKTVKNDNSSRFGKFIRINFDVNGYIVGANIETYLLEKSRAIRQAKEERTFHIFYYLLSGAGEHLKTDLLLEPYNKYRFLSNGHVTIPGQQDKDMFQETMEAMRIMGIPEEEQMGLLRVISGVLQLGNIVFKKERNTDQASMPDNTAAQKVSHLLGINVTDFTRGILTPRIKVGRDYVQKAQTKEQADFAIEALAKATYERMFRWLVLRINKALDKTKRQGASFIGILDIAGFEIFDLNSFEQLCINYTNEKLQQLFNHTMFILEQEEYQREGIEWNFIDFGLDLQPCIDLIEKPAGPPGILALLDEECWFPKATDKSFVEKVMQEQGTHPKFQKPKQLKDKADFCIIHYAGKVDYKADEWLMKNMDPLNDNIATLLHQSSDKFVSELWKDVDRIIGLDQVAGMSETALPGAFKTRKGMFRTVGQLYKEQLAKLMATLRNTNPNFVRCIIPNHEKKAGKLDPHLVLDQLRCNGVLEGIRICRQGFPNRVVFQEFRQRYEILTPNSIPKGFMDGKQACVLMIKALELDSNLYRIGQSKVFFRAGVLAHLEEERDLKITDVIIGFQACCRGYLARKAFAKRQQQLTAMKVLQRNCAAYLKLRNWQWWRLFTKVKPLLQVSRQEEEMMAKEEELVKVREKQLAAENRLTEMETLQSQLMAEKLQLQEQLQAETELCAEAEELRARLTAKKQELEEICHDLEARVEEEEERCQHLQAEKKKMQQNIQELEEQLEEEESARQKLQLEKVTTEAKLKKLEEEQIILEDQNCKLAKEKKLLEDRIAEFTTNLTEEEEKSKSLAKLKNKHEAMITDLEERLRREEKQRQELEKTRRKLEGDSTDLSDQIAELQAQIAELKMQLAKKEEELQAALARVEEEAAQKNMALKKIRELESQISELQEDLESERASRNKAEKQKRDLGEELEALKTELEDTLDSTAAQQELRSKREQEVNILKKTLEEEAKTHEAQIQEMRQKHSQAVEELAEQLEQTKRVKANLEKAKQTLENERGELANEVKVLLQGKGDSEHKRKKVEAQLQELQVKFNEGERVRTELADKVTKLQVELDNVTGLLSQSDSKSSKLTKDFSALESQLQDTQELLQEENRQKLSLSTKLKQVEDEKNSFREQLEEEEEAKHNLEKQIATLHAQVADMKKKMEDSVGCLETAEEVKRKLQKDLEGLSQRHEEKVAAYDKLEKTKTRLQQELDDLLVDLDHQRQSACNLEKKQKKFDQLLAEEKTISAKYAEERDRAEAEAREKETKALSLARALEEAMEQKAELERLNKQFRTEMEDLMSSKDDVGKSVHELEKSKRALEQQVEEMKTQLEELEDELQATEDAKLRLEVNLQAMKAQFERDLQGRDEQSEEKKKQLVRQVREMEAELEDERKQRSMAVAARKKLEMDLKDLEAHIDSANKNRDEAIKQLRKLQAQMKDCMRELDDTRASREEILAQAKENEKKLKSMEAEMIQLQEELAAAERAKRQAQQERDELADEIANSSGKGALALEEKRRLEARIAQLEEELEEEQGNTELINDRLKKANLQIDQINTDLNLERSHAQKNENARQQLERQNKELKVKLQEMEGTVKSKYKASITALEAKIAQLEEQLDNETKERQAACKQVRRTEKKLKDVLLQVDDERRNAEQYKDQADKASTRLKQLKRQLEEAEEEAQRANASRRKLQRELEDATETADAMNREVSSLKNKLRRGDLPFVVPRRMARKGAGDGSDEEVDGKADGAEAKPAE

No constants are given. Whether binding was seen depends on the method and setting. In cells and extracts the contact can be indirect. Here binding means that the protein was enriched with, or labelled near, the bait; the list need not be complete. Tags and fused reporters may be left off the sequences shown.

This test has as its target T1, MOTS-c fused with green fluorescent protein (MOTS-c-GFP) (human).
T1 sequence: MRWQEMGYIFYPRKLR
Nature of the test: affinity purification with mass spectrometry; MOTS-c-GFP immunoprecipitated from lysates of normoxic and HR-treated HPMVECs stably expressing MOTS-c-GFP; Protein A/G magnetic beads (Pierce MS-Compatible Magnetic IP Kit); LC-MS/MS.

For the substance “myosin heavy chain 9 (MYH9) (from UniProt P35579 1-1960)”, the binding result is “binds”.
For the substance “MYH9 phosphorylated at Ser1943 (p-MYH9) (from UniProt P35579 1-1960)”, the binding entry is recorded as “binds”.
